Test results published in the supplement of paper PMC10689618.
Counter-ions that a name gives are not always drawn. The list shows a part of the results. Repeats are few or missing, and single values can be far off.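 Labelled rat cortical synaptosomes were engulfed by primary human fetal astrocytes. Engulfment equaled a red/green ratio, corrected for calcein live-cell signal and normalized to the plate median. Compounds were toxic when calcein dropped over 30%, and reduced phagocytosis when below 70% of the median above 5 µM.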

How the values were obtained:
Human fetal astrocytes [1] = test: loss of total cells relative to no-compound high-control median (toxicity); higher = more toxic (fewer cells); conditions: 24 h
Human fetal astrocytes [2] = test: synaptosome phagocytosis (pHrodo/calcein intensity ratio) relative to plate median of data wells; higher = more phagocytosis; conditions: 24 h

SMILES | loss of total cells (Human fetal astrocytes [1]; 1.39 µM) [%] | loss of total cells (Human fetal astrocytes [1]; 2.78 µM) [%] | loss of total cells (Human fetal astrocytes [1]; 5.56 µM) [%] | loss of total cells (Human fetal astrocytes [1]; 11.11 µM) [%] | loss of total cells (Human fetal astrocytes [1]; 22.22 µM) [%] | synaptosome phagocytosis (Human fetal astrocytes [2]; 1.39 µM) [%] | synaptosome phagocytosis (Human fetal astrocytes [2]; 2.78 µM) [%] | synaptosome phagocytosis (Human fetal astrocytes [2]; 5.56 µM) [%] | synaptosome phagocytosis (Human fetal astrocytes [2]; 11.11 µM) [%] | synaptosome phagocytosis (Human fetal astrocytes [2]; 22.22 µM) [%]
CC(=O)Oc1ccc2c(c1C(C)C)CCC1C(C)(C)CCC[C@]21C (stereo not given in full) | -16.3 | -11.3 | 34.4 | 18.1 | 3.3 | 102 | 106 | 154 | 123 | 98.9
O=C(OCc1ccccc1)c1ccccc1 | -32.3 | -40.5 | 5 | -6.2 | -2.2 | 112 | 82 | 120 | 98.2 | 86.8
CC1(C)CC[C@]2(C)CC[C@]3(C)C(=CC[C@@H]4[C@@]5(C)CC[C@H](O)C(C)(C)[C@@H]5CC[C@]43C)[C@@H]2C1 [beta-AMYRIN] | -4 | 13.3 | -19.8 | 20 | -16.7 | 119 | 94.3 | 72.6 | 108 | 105
CC(C)Cn1c(=O)n(C)c(=O)c2[nH]cnc21 [3-Isobutyl-1-methylxanthine] | -21.4 | -0.7 | 23.7 | 34.2 | -5.6 | 82.7 | 116 | 126 | 111 | 91.3
C[C@H](N)C(=O)NC(Cc1ccccc1)C(=O)O (mixture of isomers) | -12.3 | -8.3 | 10.3 | -12.8 | 5.9 | 91.4 | 80.2 | 119 | 108 | 87.3
C=C1CC[C@@H]2[C@](C)(CO)[C@H](O)CC[C@@]2(C)[C@@H]1C/C=C1/C(=O)OC[C@H]1O | -29.5 | 6.9 | -14.7 | 10.1 | 1.5 | 112 | 111 | 114 | 113 | 84.6
O=C(O)c1ccc2c(c1)OCO2 | -9 | -13.4 | -6.6 | 10.8 | 28.1 | 98.3 | 103 | 141 | 131 | 96.4
COc1cc(C)c(C(=O)Oc2cc(C)c(C(=O)O)c(O)c2C)c(O)c1C=O | -10.7 | -0.4 | 15.4 | 10.8 | 15.6 | 94.2 | 100 | 98.2 | 113 | 164
CC(C)CCC[C@@H](C)[C@H]1CC[C@H]2[C@@H]3CC=C4C[C@@H](O)CC[C@]4(C)[C@H]3CC[C@]12C | -5.6 | -12.5 | -7 | -8.9 | -32.5 | 98.4 | 97.7 | 90.8 | 119 | 131
COc1cc(C2Oc3cc([C@H]4Oc5cc(O)cc(O)c5C(=O)[C@@H]4O)ccc3OC2CO)ccc1O (stereo not given in full) | 17.7 | 0.4 | 20.3 | 6.3 | 25.8 | 107 | 85.9 | 144 | 114 | 150
O=C([O-])c1ccccc1O.[Na+] | -2.1 | -18.6 | 2.1 | 17 | -19.8 | 110 | 101 | 102 | 130 | 86.1
O=C(O)c1cc(O)c2c(c1)[C@@H]([C@H]1c3cc(C(=O)O)cc(O)c3C(=O)c3c(O[C@@H]4O[C@H](CO)[C@@H](O)[C@H](O)[C@H]4O)cccc31)c1cccc(O[C@@H]3O[C@H](CO)[C@@H](O)[C@H](O)[C@H]3O)c1C2=O | -15.6 | 9 | 17.6 | 20.9 | 21.5 | 107 | 123 | 147 | 110 | 154
CC(=O)Nc1ccc(OC(=O)c2ccccc2O)cc1 | 14.8 | 16.2 | 6.5 | 2.9 | 22 | 93.1 | 126 | 104 | 114 | 67.7
NC(C(=O)O)C(O)C(=O)O (stereo not drawn) [d,l-threo-3-HYDROXYASPARTIC ACID] | -11.5 | -13.4 | 0.7 | 0.7 | 9.6 | 107 | 102 | 76.7 | 99.9 | 125
C[C@@H]1O[C@@H](O[C@H]2[C@H](Oc3cc(O)c4c(c3)O[C@H](c3ccc(O)cc3)CC4=O)O[C@H](CO)[C@@H](O)[C@@H]2O)[C@H](O)[C@H](O)[C@H]1O | 6.9 | 4 | 16.7 | -13 | -9.8 | 108 | 135 | 130 | 103 | 139
CC(COc1ccccc1)N(CCCl)Cc1ccccc1 (stereo not given) [Phenoxybenzamine hydrochloride] | 4.1 | -4 | 17.1 | 14.1 | 27.2 | 108 | 94.1 | 97.8 | 51.7 | 70.9
O=C1[C@H](CC[C@H](O)c2ccc(F)cc2)[C@@H](c2ccc(O)cc2)N1c1ccc(F)cc1 | -37.9 | -16.7 | -0.6 | 5.6 | 4 | 127 | 96.5 | 95.6 | 98.5 | 105
COc1ccc2cc1Oc1ccc(cc1)C[C@H]1c3c(cc4c(c3Oc3cc5c(cc3OC)CCN(C)[C@@H]5C2)OCO4)CCN1C | 14.1 | 13.4 | 16.7 | 2.9 | 19.7 | 67.9 | 89.4 | 110 | 123 | 119
C=C1C(=O)[C@]23[C@H](CC[C@@H]1[C@@H]2O)[C@]12CO[C@@]3(O)[C@H](O)[C@H]1C(C)(C)CC[C@@H]2O | -18.9 | -6.9 | 19.8 | 25 | 34.8 | 124 | 96.7 | 101 | 67.3 | 68.6
O=C(O)COCCN1CCN(C(c2ccccc2)c2ccc(Cl)cc2)CC1 (stereo not given) | 0 | -10.1 | -8.7 | -19.5 | 9.1 | 94.1 | 103 | 89.4 | 104 | 93.9

Full records from above. Values in the order: loss of total cells (Human fetal astrocytes [1]; 1.39 µM) [%] | loss of total cells (Human fetal astrocytes [1]; 2.78 µM) [%] | loss of total cells (Human fetal astrocytes [1]; 5.56 µM) [%] | loss of total cells (Human fetal astrocytes [1]; 11.11 µM) [%] | loss of total cells (Human fetal astrocytes [1]; 22.22 µM) [%] | synaptosome phagocytosis (Human fetal astrocytes [2]; 1.39 µM) [%] | synaptosome phagocytosis (Human fetal astrocytes [2]; 2.78 µM) [%] | synaptosome phagocytosis (Human fetal astrocytes [2]; 5.56 µM) [%] | synaptosome phagocytosis (Human fetal astrocytes [2]; 11.11 µM) [%] | synaptosome phagocytosis (Human fetal astrocytes [2]; 22.22 µM) [%]
COc1ccc2cc1Oc1ccc(cc1)C[C@H]1c3c(cc4c(c3Oc3cc5c(cc3OC)CCN(C)[C@@H]5C2)OCO4)CCN1C as listed: 14.1 | 13.4 | 16.7 | 2.9 | 19.7 | 67.9 | 89.4 | 110 | 123 | 119
C[C@@H]1O[C@@H](O[C@H]2[C@H](Oc3cc(O)c4c(c3)O[C@H](c3ccc(O)cc3)CC4=O)O[C@H](CO)[C@@H](O)[C@@H]2O)[C@H](O)[C@H](O)[C@H]1O as listed: 6.9 | 4 | 16.7 | -13 | -9.8 | 108 | 135 | 130 | 103 | 139
